Hit rate of the full screen: of about 320,000 compounds, about 22,000 (6.9%) were called active. Inconclusive means that the source gave no clear call. Such entries were picked first, then a sample of the others. Calls follow the shape of the dose curve; as a rule, active = well fitted inhibition curve with a large enough effect; inconclusive = small, poorly fitted or top-dose-only effect, or another doubt; inactive = no such curve, though single readings can be large or run the other way. Where the call is inconclusive, the potency comes from a doubtful curve fit.
Experiment: Primary qHTS for delayed death inhibitors of the malarial parasite plastid, 96 hour incubation
Conditions: P. falciparum luciferase reporter growth; series mostly up to 28.7 µM; activity change, negative = inhibition: at the top concentration
Outline: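 Cell-based qHTS: luciferase-tagged P. falciparum in erythrocytes (2% hematocrit, 0.05% parasitemia final) incubated with compounds for 96 hours, 37 C, 5% CO2; luciferase detection reagent then added and luminescence measured.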
% is scaled to controls: 0 for no effect and ±100 for the full control effect; potency is read from the fitted curve at half-maximal effect.

Compound | activity change, negative = inhibition | Potency
CCOC(=O)c1sc(N)c(C(=O)Nc2ccccc2OC)c1C | inactive: 4.55% | 
COCCCN1CN(S(=O)(=O)c2ccc(C)cc2C)c2nc3ccccc3nc21 |  | inconclusive: 13.1 µM [inhibitor, single point]
COc1ccccc1NC(=O)Cc1csc(NC(=S)Nc2ccc(C)cc2)n1 |  | active: 10.4 µM
COc1ccc(S(=O)(=O)N2CCc3ccccc32)cc1[N+](=O)[O-] |  | inconclusive: 18.5 µM [inhibitor, single point]
O=c1[nH]c(S)c(/C=C2\C=Nc3ccccc32)s1 | inactive: -23.3% | 
CCc1ccc(N(C(=O)c2snc(C(N)=O)c2N)C(C(=O)NC2CCCC2)c2ccncc2)cc1 (centres undefined) | inactive: 0% | 
COc1cccc(C2C(=O)N(C3CCCCC3)CC(=O)N2Cc2ccc(F)cc2)c1 (centres undefined) |  | inconclusive: 0.522 µM [inhibitor, partial curve, poor fit]
NCC(=O)c1cccc2ccc[n+]([O-])c12 | inactive: 36.4% | 
Cc1nn(-c2ccc(F)cc2)c(Cl)c1C(=O)NCC1CCCO1 (centres undefined) |  | inconclusive: 18.5 µM [inhibitor, single point]
CCN(Cc1ccccc1)S(=O)(=O)c1ccc(C(=O)Nc2nnc(C)o2)cc1 |  | inconclusive: 1.17 µM [inhibitor, partial curve]
NC(=O)NCc1ccc(Cl)cc1 |  | inconclusive: 13.1 µM [inhibitor, single point]
CC1N=C(c2ccccc2)c2cc(Br)ccc2NC1=O (centres undefined) |  | inconclusive: 18.5 µM [inhibitor, single point]
COc1ccccc1CN1CC(C(=O)NCc2ccc(N3CCCC3=O)cc2)CCC1=O (centres undefined) | inactive: -5.73% | 
Cc1ccc(Nc2nc3ccccc3c(=O)[nH]2)cc1C | inactive: 0% | 
CCOc1ccc(S(=O)(=O)Nc2cccc(C(=O)NCC(C)(C)N3CCOCC3)c2)cc1 |  | inconclusive: 9.28 µM [inhibitor, partial curve, poor fit]
COc1ccc(C(C)=O)cc1CN1CCCCC1 | inactive: -20.2% | 
COCCCNC(=O)CCc1nnc(Cc2ccc(-c3ccccc3)cc2)o1 |  | inconclusive: 10.4 µM [inhibitor, single point]
O=C(c1c[nH]c2ccccc12)C(F)(F)F | inactive: 22.6% | 
O=C(NCC(c1cccs1)N1CCOCC1)c1ccc(OCc2ccccc2)cc1 (centres undefined) |  | inconclusive: 18.5 µM [inhibitor, single point]
Cc1ccsc1C(=O)N[C@@H](C)c1nnc2ccccn12 | inactive: 7.17% | 
COc1ccccc1-c1coc2c(CN3CCCCC3C)c(O)ccc2c1=O (centres undefined) |  | inconclusive: 18.5 µM [inhibitor, single point]
COc1ccc(N(CC(=O)Nc2ccc3c(c2)OCCO3)S(=O)(=O)c2c(C)nn(C)c2C)cc1 | inactive: -12.9% | 
COc1cccc(NC(=O)CSc2nc3c(c(=O)n2C)SC(C)C3)c1 (centres undefined) |  | active: 9.28 µM
O=C(CN1CCN(Cc2ccccc2Cl)C1=O)NCc1ccco1 |  | active: 3.29 µM
N/C(=N\OC(=O)c1cc(Cl)ccc1Cl)c1ccncc1 |  | inconclusive: 1.17 µM [inhibitor, partial curve, poor fit]
O=C1c2oc3ccc(Br)cc3c(=O)c2C(c2cccc(F)c2)N1CCO (centres undefined) | inactive: 61.8% | 
COc1cc(-c2c(-c3ccc4c(c3)OCO4)noc2C)ccc1F | inactive: -10.2% | 

Compound | activity change, negative = inhibition | Potency
Cc1ccc(NC2CCCN(C(=O)C3CCCCC3)C2)cc1C (centres undefined) | inactive: -1.24% | 
COc1ccc(/C=N/NC(=O)c2ccc(COc3ccccc3Cl)o2)cc1 |  | inconclusive: 0.0828 µM [inhibitor, full curve, poor fit]
Cc1ccc(C(=O)NNC(=O)c2ccc(NS(=O)(=O)c3cccs3)cc2)o1 | inactive: 16.5% | 
CCOC(=O)N1CCC(NC(=O)c2cc(S(=O)(=O)N3CCc4ccccc43)cn2C)CC1 |  | inconclusive: 18.5 µM [inhibitor, single point]
O=C(NC(=S)N1CCCc2ccccc21)c1ccc(Br)cc1 |  | inconclusive: 11.7 µM [inhibitor, single point]
Cc1c(Oc2cc(NN3CCCCC3)c([N+](=O)[O-])cc2[N+](=O)[O-])cccc1[N+](=O)[O-] |  | inconclusive: 18.5 µM [inhibitor, single point]
Cc1ccc(-c2nc(C(Cl)Cl)c3ccccc3n2)cc1 |  | inconclusive: 18.5 µM [inhibitor, single point]
COc1ccc(Cl)cc1NC(=S)N(CCCN1CCOCC1)Cc1cn(C)c2ccccc12 | inactive: 12.9% | 
CCCCn1c(C)c(C(=O)OCC)c2c(CN3CCCC3)c(O)ccc21 |  | active: 4.65 µM
CCCn1c(-c2ccc(OC)cc2)nc2nc3ccccc3nc21 |  | active: 3.7 µM
O=C(CN1N=C(c2ccc(Cl)cc2)CCC1=O)NCc1cccnc1 |  | inconclusive: 13.1 µM [inhibitor, single point]
COc1ccc(S(=O)(=O)N2CC(=O)Nc3ccccc32)cc1C | inactive: -0.732% | 
O=[N+]([O-])c1ccc(C(O)CN2CCN(Cc3ccccc3)CC2)cc1 (centres undefined) |  | inconclusive: 11.7 µM [inhibitor, single point]
CSc1ccccc1NC(=O)CN(C)Cc1c(O)ccc2ccccc12 | inactive: 53% | 
COc1ccccc1NC(=O)/C(=C\c1cccnc1)NC(=O)c1ccc(C)cc1 |  | active: 10.4 µM
COc1ccccc1OCC(=O)Nc1ccc(N2CCOCC2)cc1N1CCOCC1 |  | inconclusive: 13.1 µM [inhibitor, partial curve]
Cc1ccc(S(=O)(=O)N2CCN(C)CC2c2ccccc2)cc1 (centres undefined) | inactive: 34.8% | 
Cc1ccc(NC(=O)CNCc2ccccn2)cc1S(=O)(=O)N(C)C |  | inconclusive: 10.4 µM [inhibitor, single point]
S=C1NC2(CCCCC2)Nc2ccccc21 | inactive: 16.9% | 
CC(=O)N(C)C1=C(N2CCOCC2)C(=O)c2ccccc2C1=O |  | active: 0.294 µM
C=CCOn1c(=O)c(-c2ccc(F)cc2)[n+]([O-])c2ccccc21 | inactive: 29% | 
CCCCNC(=O)COC(=O)c1c2c(nc3ccccc13)/C(=C/c1cccs1)CC2 |  | inconclusive: 16.5 µM [inhibitor, single point]
NC(=O)c1ccc[n+](CC(=O)Nc2ccccc2C(=O)O)c1 | inactive: 29.8% | 
O=C(CCCCCN1C(=O)CCC1=O)Nc1ccc2c(c1)OCO2 | inactive: 17.3% | 
CC1CCCCN1C(=O)CSc1nc2ccccc2[nH]1 (centres undefined) | inactive: -1.35% | 
CS(=O)(=O)N(CC(=O)Nc1ccccc1-c1ccccc1)c1ccccc1 |  | inconclusive: 10.4 µM [inhibitor, single point]
O=C(Cc1ccccc1)Oc1cccc(N2C(=O)CCC2=O)c1 |  | inconclusive: 11.7 µM [inhibitor, single point]

Already shown: 4 of the compounds above.
Compound | activity change, negative = inhibition | Potency
Cc1ccc(NC(=O)CNCc2ccccn2)cc1S(=O)(=O)N(C)C |  | inconclusive: 10.4 µM [inhibitor, single point]
S=C1NC2(CCCCC2)Nc2ccccc21 | inactive: 16.9% | 
CC(=O)N(C)C1=C(N2CCOCC2)C(=O)c2ccccc2C1=O |  | active: 0.294 µM
C=CCOn1c(=O)c(-c2ccc(F)cc2)[n+]([O-])c2ccccc21 | inactive: 29% | 

More results follow:

Compound | activity change, negative = inhibition | Potency
CC(C)(C)NC(=O)C(=O)NNC(=O)c1ccco1 |  | inconclusive: 14.7 µM [inhibitor, single point]
O=C(CSCc1ccc(Cl)cc1)NN=C1CCCCCC1 |  | inconclusive: 18.5 µM [inhibitor, single point]
O=c1n(CC2CO2)c(=O)n(CC2CO2)c(=O)n1CC1CO1 (centres undefined) |  | active: 6.01 µM
COc1cc(C2C3=C(CCCC3=O)OC3=C2C(=O)CCC3)ccc1OCC(=O)Nc1ccccc1 |  | inconclusive: 9.28 µM [inhibitor, single point]
O=C(NNS(=O)(=O)c1ccc(F)cc1)c1ccccc1O | inactive: 8.31% | 
O=C(NCCCc1ccccc1)C(=O)c1c[nH]c2ccccc12 |  | inconclusive: 18.5 µM [inhibitor, single point]
CCOc1ccc(NC(=O)CN(C)C(=O)C2CCN(c3ncnc4sc(C)c(C)c34)CC2)cc1OCC |  | inconclusive: 10.4 µM [inhibitor, partial curve]
Cc1ccccc1NC(=O)c1ccc(NC(=O)C2CCCO2)cc1 (centres undefined) | inactive: -12.7% | 
CCOc1ccc(C(=O)N/N=C(/C)C2C(=O)c3ccccc3C2=O)cc1 |  | inconclusive: 18.5 µM [inhibitor, single point]
Cc1ccsc1/C=N/NC(=O)c1ccc([N+](=O)[O-])cc1 | inactive: 2.44% | 
C=CCN1C(=O)/C(=C/c2ccccc2)S/C1=N/c1nccs1 |  | inconclusive: 20.8 µM [inhibitor, partial curve, poor fit]
CCOCCCNC(=O)c1ccc(C2SCC(=O)N2Cc2ccccc2)cc1 (centres undefined) |  | inconclusive: 18.5 µM [inhibitor, single point]
CC1=CC(C)(C)N(S(=O)(=O)c2ccc(C)cc2)c2ccc(C)cc21 |  | active: 10.4 µM
CCOc1cnc(-c2ccc(OC)cc2)o1 | inactive: 78.4% | 
CC(C)n1nnnc1SCC(=O)c1c(N)n(C2CC2)c(=O)[nH]c1=O |  | inconclusive: 18.5 µM [inhibitor, single point]
COCCNC(=O)/C(C#N)=C/c1c(N2CCN(c3ccccc3)CC2)nc2c(C)cccn2c1=O |  | inconclusive: 18.5 µM [inhibitor, single point]
Cc1cccc(NC(=O)CSc2nc(C)c(Cc3ccccc3)c(=O)[nH]2)c1 |  | inconclusive: 2.62 µM [inhibitor, full curve, poor fit]
O=C1OCC/C1=C\c1ccccc1 | inactive: 0.127% | 
N#Cc1ccc(CSc2ccc(S(=O)(=O)N3CCCC3)cn2)cc1 | inactive: -28.6% | 
O=C(O)c1sccc1SCc1ccc(Cl)c(Cl)c1 | inactive: 63.6% | 
Cc1ccc(NC(=O)c2ccc3nc[nH]c3c2)nc1 | inactive: 5.05% | 
COc1ccc(NC(=O)c2sccc2SCc2cccc(C(F)(F)F)c2)cc1 |  | inconclusive: 18.5 µM [inhibitor, single point]
COc1cccc(/C=C2\SC(=O)N(CCC(=O)NC3CCS(=O)(=O)C3)C2=O)c1 (centres undefined) |  | active: 9.28 µM
O=C(CN1C(=O)C2C3C=CC(C3)C2C1=O)Nc1cccc2c1CCCC2 (centres undefined) | inactive: -17.6% | 
C=CCSc1nc2c(c(=O)n(C)c(=O)n2C)n1CC |  | inconclusive: 0.0165 µM [inhibitor, full curve, poor fit]
